No constants are given. Whether binding was seen depends on the method and setting. Binding seen in cells or lysates may run through a third protein.
Molecular target: FLAG-53BP1 ΔMFF (human) (UniProt Q12888)
Assay: co-IP; FLAG-53BP1 WT, ΔMFF or IEDI_AAAA transfected in HEK293T, MLN4924 3 h; immunoprecipitation and blot for GMCL1

Chains of the proteins cited; added tags and fusions are not shown. Lines headed by an entry give the natural chain unless they say otherwise; changes in a name come on top.
UniProt Q12888: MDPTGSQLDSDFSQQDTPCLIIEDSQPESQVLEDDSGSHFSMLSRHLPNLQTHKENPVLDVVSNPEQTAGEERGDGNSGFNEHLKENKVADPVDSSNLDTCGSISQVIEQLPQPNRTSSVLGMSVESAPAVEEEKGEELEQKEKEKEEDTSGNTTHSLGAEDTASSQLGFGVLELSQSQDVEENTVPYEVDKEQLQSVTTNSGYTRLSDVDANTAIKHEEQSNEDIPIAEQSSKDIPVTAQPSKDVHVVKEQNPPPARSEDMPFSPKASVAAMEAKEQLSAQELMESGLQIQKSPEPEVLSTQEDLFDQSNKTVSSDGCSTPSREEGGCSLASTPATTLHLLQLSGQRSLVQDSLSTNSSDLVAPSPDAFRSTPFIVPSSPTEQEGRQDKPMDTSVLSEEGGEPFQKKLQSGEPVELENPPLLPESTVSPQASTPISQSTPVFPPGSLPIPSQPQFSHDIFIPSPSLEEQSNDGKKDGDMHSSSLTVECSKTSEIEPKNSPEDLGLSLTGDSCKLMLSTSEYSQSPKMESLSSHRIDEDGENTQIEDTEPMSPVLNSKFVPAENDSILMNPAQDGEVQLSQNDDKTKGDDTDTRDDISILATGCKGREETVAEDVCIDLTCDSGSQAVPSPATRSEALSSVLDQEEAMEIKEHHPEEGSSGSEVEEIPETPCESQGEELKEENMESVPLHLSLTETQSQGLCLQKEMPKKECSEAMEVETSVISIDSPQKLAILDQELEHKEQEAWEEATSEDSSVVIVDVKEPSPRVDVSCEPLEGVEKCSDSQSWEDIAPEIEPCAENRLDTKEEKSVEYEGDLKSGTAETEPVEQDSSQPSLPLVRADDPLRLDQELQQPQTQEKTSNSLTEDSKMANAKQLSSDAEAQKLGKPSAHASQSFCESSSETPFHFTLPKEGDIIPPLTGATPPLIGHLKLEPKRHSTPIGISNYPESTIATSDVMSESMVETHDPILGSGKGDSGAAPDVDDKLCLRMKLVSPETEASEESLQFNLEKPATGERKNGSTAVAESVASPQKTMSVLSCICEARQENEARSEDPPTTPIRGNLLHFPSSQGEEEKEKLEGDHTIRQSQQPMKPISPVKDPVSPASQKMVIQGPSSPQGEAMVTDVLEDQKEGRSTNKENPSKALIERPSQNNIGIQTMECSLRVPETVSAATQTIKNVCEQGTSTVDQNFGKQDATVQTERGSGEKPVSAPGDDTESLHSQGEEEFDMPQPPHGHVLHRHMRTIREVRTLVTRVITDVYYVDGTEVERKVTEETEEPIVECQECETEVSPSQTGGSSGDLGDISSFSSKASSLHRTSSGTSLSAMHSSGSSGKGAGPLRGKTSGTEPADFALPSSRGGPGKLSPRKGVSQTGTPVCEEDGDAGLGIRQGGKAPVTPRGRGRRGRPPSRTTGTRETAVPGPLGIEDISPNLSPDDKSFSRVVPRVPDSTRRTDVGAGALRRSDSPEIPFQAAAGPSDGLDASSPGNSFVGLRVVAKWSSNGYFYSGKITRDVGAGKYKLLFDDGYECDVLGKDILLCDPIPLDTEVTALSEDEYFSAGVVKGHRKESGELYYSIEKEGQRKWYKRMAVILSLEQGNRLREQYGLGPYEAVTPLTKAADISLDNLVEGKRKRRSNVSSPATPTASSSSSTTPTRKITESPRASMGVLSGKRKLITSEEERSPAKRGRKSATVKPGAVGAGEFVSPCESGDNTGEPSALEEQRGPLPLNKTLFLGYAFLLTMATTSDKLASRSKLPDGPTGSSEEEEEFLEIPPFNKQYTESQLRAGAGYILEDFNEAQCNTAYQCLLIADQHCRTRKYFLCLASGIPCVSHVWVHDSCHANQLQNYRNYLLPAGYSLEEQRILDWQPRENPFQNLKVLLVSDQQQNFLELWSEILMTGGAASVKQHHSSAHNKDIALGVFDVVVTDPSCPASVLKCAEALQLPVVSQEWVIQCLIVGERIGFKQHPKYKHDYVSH

B1: endogenous GMCL1, HEK293T (protein, UniProt Q96IK5 1-515)
chain: MGSLSSRVLRQPRPALAQQAQGARAGGSARRPDTGDDAAGHGFCYCAGSHKRKRSSGSFCYCHPDSETDEDEEEGDEQQRLLNTPRRKKLKSTSKYIYQTLFLNGENSDIKICALGEEWSLHKIYLCQSGYFSSMFSGSWKESSMNIIELEIPDQNIDVEALQVAFGSLYRDDVLIKPSRVVAILAAACLLQLDGLIQQCGETMKETVNVKTVCGYYTSAGTYGLDSVKKKCLEWLLNNLMTHQNVELFKELSINVMKQLIGSSNLFVMQVEMDIYTALKKWMFLQLVPSWNGSLKQLLTETDVWFSKQRKDFEGMAFLETEQGKPFVSVFRHLRLQYIISDLASARIIEQDAVVPSEWLSSVYKQQWFAMLRAEQDSEVGPQEINKEELEGNSMRCGRKLAKDGEYCWRWTGFNFGFDLLVTYTNRYIIFKRNTLNQPCSGSVSLQPRRSIAFRLRLASFDSSGKLICSRTTGYQILTLEKDQEQVVMNLDSRLLIFPLYICCNFLYISPEKKN
- binding: no binding

Source: paper doi:10.1101/2025.03.18.643855
